Primary screen of a compound library

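Viability assay of Plasmodium falciparum sporozoites; the read-out is not stated. The concentration is filed as 10 mM, unlikely as a test dose, so the dose is not known. The record gives no direction; compounds that gave an IC50 in retests scored well above the rest, so higher reads as lower viability. Strong results were mostly tested again. About 34,000 compounds were tested under these conditions; 0.84% (about 280) showed 50% or more at least once.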

The filed quantity is “Percent Effect” (%).
How 0% and 100% were set is not recorded. Most values in the screen are low, and negative values occur.
Compounds were drawn at random from those tested, without regard to their results.
Two or more numbers in one place are separate tests of the same structure; such repeats can differ widely.

For CC(CNC(=O)Nc1ccc(C#N)cc1)N1CCc2ccccc21 (configuration not stated) the result was 20.36% & 11.45%. Cc1ccc(C(=O)N2CCC3(CCC(=O)N(CC(N)=O)C3)CC2)c(O)c1 read -0.4479%. [H][C@@]12COC[C@]1(CNS(C)(=O)=O)CN(C(=O)N1CCCC1)C2 gave -1.54%. For Cc1ccc(NC(=O)CN2CCC(OCC3CCCO3)CC2)c(C)c1 (configuration not stated) the result was -5.085%. O=C(O)c1ccc2ccc(N3CCN(CC4CC4)CC3)n2c1 read 2.489%. With Cc1cnc(-c2nc(NC3CCCC3)ncc2-c2onc(C)c2C)cn1 the screen gave 10.94%.

O=C(O)Cc1nc2nccc(-c3ccc(F)cc3)n2n1 read 9.856%. Cc1nccn1-c1cc(CNC(=O)CCC2CCCO2)ccn1 (configuration not stated) gave 10.68%. For CN(Cc1ccccc1)C(=O)CCNS(=O)(=O)c1cccnc1 the result was -17.89%. Cc1nccn1CCN(C)C(=O)C1CCN(C(=O)C2CCCC2)CC1 gave -4.154%. With O=S(=O)(Cc1ccccc1Cl)NCCCN1CCCC1 the screen gave 1.065%. Cc1oncc1C(=O)N1CC2CC1(C(=O)NCc1ccco1)C2 gave -4.619%.

Result for Cc1ccc(N(CCC#N)C(=O)CN2CCCC2c2ccsc2)cc1 (configuration not stated) was 3.128%. O=C(NCCO)Nc1cnc2cc(Cl)ccc2c1O read 9.748%. Cc1n[nH]c(C)c1C1COCCN1C(=O)c1cc(Cl)c[nH]1 (configuration not stated) gave -3.06%. Result for Cc1nnc2n1CCN(Cc1csc(Cc3ccccc3)n1)C2 was 2.59%. O=C(C1CCCC1)N1CCCC([C@@H]2C[C@H](C(F)F)n3ncnc3N2)C1 (some centres not stated) read -3.173%. Cc1ccc(N2CCCC(NCC(=O)NC(C3CC3)C3CC3)C2)nn1 (configuration not stated) read 3.922%.

Result for CC(C)OC[C@H]1CCC[C@]12CN(C(=O)C1CCOCC1)CCO2 was -7.932%. Result for Cc1ccccc1CN1CCOC(c2nccc(CN(C)C)n2)C1 (configuration not stated) was -5.663%. CCc1nc(C2CCCN(C(=O)c3cccc4c3ccn4C)C2)no1 (configuration not stated) read 29.66% & 30.23% & 26.36%. With Cc1cnn(C2CN(CC(=O)Nc3cccnc3)C2)c1 the screen gave -5.623%. For CCOC(=O)CC(C)NC(=O)c1cn(Cc2ccccc2F)nn1 (configuration not stated) the result was -29.07% & -17.88%. NC(=O)C1CCN(C(=O)CCSCc2ccccc2)CC1 read 0.8983%.

With O=C(NCCOCCO)c1cccnc1Oc1ccc(Cl)cc1 the screen gave -15.56%. COCCOc1ccc(NC(=O)N2CCCC2c2ccncc2)cn1 (configuration not stated) gave -7.63%. COC1COC2(CCN(Cc3ccc4ccccc4n3)CC2)C1.O=C(O)C(F)(F)F.O=C(O)C(F)(F)F (configuration not stated) gave -5.322% & -9.805%. Cc1nc(-c2ccccc2)c(C(=O)N2CCC3(CC(=O)NC3=O)C2)s1 (configuration not stated) gave -7.135%. COCC1c2c(cnn2C)CCN1C(=O)c1cscn1.O=C(O)C(F)(F)F (configuration not stated) read 7.005%. CCN1CC(COc2ccccc2)Oc2ncccc2S1(=O)=O (configuration not stated) gave -4.306%.

For NC(=O)C1CCN(Cn2nc(-c3ccc(F)cc3)oc2=O)CC1 the result was 10.47%. Result for O=C(NCCc1cccnc1)Nc1cc(C(F)(F)F)c[nH]c1=O was 8.49%. With Cn1ccc(C(=O)N2CCCC(Cc3cnc4ccccc4c3)C2)n1 (configuration not stated) the screen gave 6.527%. With COCc1noc(Cn2c(C3CC3)nc3ccccc32)n1 the screen gave -3.571%. CCS(=O)(=O)N1CCC(c2nnc(Cn3cccn3)n2C2CC2)CC1 read 11.65%. Result for Cc1cccnc1CN(C)c1ncnc2[nH]ccc12 was -11.58%.

For O=C(c1cscn1)N1CCCC(n2cncn2)C1 (configuration not stated) the result was 8.006%. With Cc1cc(C)n(C2CN(CC(=O)N(C)Cc3ccsc3)C2)n1 the screen gave -27.21%. OCCn1nccc1C1CCN(CCOc2ccccc2Cl)CC1 gave -11.76%. For Cc1ncoc1C(=O)N1CC[C@@]2(C[C@H](NS(C)(=O)=O)CCO2)C1 the result was -1.117%. Cc1cc(C(=O)N2CCc3nnc(N)cc3C2)c(C)n1C1CC1 read -15.75%. With Cn1ccc(CN2CCCC23CCN(Cc2ccccc2F)CC3)n1.O=C(O)C(F)(F)F.O=C(O)C(F)(F)F the screen gave 8.406%.

Result for CCOC[C@@H]1CCC[C@@]12CN(Cc1nccs1)CCO2 was -8.651%. With Cc1cc(C2CCCN(C(=O)c3cccnc3)C2)ccn1 (configuration not stated) the screen gave -8.44%. Result for Cc1cc(=O)n2nc(Oc3cccc(C(N)=O)c3)sc2n1 was -1.074%. Result for CC(C)c1noc(CCC(=O)NC2CCS(=O)(=O)C2)n1 (configuration not stated) was 7.684%. For Cc1noc(C)c1C(=O)N1CCCC1c1c(C)nn(C)c1C (configuration not stated) the result was 8.906%. COCCN(Cc1ccoc1)C(=O)c1ccccn1 gave -2.954%.

For CC(C)NC(=O)C1CN(C(=O)c2ccccc2)CC12CCOCC2 (configuration not stated) the result was 0.5945%. Result for CCN(CC)C(=O)c1ccc(-c2ccsc2)nc1C was 5.823%. Result for Cc1nc2cc(C3CCN(Cc4ccccc4F)C3)nn2c(O)c1C (configuration not stated) was 6.542%. With COc1ncccc1CN1Cc2nnn(C)c2C(COCC2CC2)C1.O=C(O)C(F)(F)F.O=C(O)C(F)(F)F (configuration not stated) the screen gave -13.52%.

Once more, the final 3:

- CCN(CC)C(=O)c1ccc(-c2ccsc2)nc1C | 5.823%
- Cc1nc2cc(C3CCN(Cc4ccccc4F)C3)nn2c(O)c1C (configuration not stated) | 6.542%
- COc1ncccc1CN1Cc2nnn(C)c2C(COCC2CC2)C1.O=C(O)C(F)(F)F.O=C(O)C(F)(F)F (configuration not stated) | -13.52%

Measurements from “University of Dundee, Small-Polar-MMV Screening Library” (2021), ChEMBL document CHEMBL3988442.